From ROBIN, a set of small-molecule microarray screens (doi:10.1002/anie.202211358).

Oligonucleotides screened, 5′ to 3′:
T1: SAM-II riboswitch RNA pseudoknot, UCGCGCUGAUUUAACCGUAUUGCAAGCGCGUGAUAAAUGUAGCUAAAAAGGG. Hit rate about 1% of about 21,000 compounds.
T2: TPP riboswitch RNA three-way junction, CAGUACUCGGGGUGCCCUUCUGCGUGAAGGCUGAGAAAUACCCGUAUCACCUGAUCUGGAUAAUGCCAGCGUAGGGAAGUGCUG. Hit rate about 0.7% of about 24,000 compounds.
T3: PreQ1 riboswitch RNA pseudoknot, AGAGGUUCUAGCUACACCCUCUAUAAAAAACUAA. From B. subtilis. Hit rate about 0.7% of about 24,000 compounds.

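Compounds were printed on reactive glass slides in duplicate spots, a dye-labelled oligonucleotide was laid over them, and the fluorescence left after washing was read. For the PreQ1, TPP and SAM-II riboswitches the laboratory earlier reported (doi:10.1038/s41467-019-09493-3) 1 µM RNA, 2 h, and a rule that included a mean Z-score above 3 (spot signal-to-noise against the whole library), a score well above that on a control array, and duplicate spots agreeing (coefficient of variation under 100). The data file gives only the calls; its cut-offs may differ, and compounds hitting several targets are kept. These are primary screening calls, not affinities; a compound without a hit may have attached poorly or may still bind in solution.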 “hit” means called a hit, “no hit” means screened and not called a hit. Compounds were drawn at random from those tested, without regard to their results. A dash means that no call is listed here.

Compound	T1	T2	T3
CCNC(=O)[C@@H]1C[C@H](N)CN1S(=O)(=O)c1ccc(-n2cccn2)cc1	no hit	no hit	no hit
CCn1cc(-c2cc(-c3cc(C(=O)OC)oc3C)nc(N)c2C#N)c(C)n1	no hit	no hit	no hit
N#Cc1nc(COc2ccc(Cl)cc2)oc1NCCCn1ccnc1	no hit	no hit	no hit
CCOC(=O)c1cnc2c(C)cc(C)cc2c1Nc1ccc(C(=O)O)cc1	no hit	no hit	no hit
COc1ccc(OCC(O)Cn2c(NCCc3ccc(OC)c(OC)c3)nc3c2c(=O)[nH]c(=O)n3C)cc1 (configuration not stated)	no hit	no hit	no hit
CCOC(=O)c1c(N)n(C2CCCC2)c2nc3ccccc3nc12	no hit	no hit	no hit
O=C(NCc1cccnc1Oc1ccccc1F)[C@H](O)C1CCCCC1	no hit	no hit	no hit
c1ccc(-c2nnc(-c3ccccn3)s2)nc1	no hit	no hit	no hit
Cc1ncccc1C(=O)N1CC[C@@H](c2ccc3ccccc3c2)[C@H](O)C1	no hit	no hit	no hit
CCOc1ccc([C@@H]2C[C@H](c3ccccc3Cl)n3nc(N)nc3N2)cc1	no hit	no hit	no hit
COc1cc(CN2CCC(N)(C(=O)O)C2)cc2c1OCO2 (configuration not stated)	no hit	no hit	no hit
Cc1ccc(Nc2c(-c3ccc(N4CCOCC4)cc3)nc3cnccn23)cc1	no hit	no hit	no hit
Cc1c(C#N)c(N)n(CCCN(C)C)c1C	no hit	no hit	no hit
COc1cccn(CC(=O)N2CCCCC2CN)c1=O (configuration not stated)	no hit	no hit	no hit
O=[N+]([O-])c1ccc(Cl)cc1NCc1cccnc1	no hit	no hit	no hit
Nc1ccc(C(=O)Nc2ccc(Oc3ccc(NC(=O)c4ccc(N)cc4)cc3)cc2)cc1	no hit	hit	no hit
CCN(CC)C(=O)[C@@H]1C[C@H](N)CN1C(=O)c1[nH]cnc1C	no hit	no hit	no hit
Nc1nnc(SCC(=O)NCc2c[nH]nc2-c2ccc(F)cc2)s1	no hit	no hit	no hit
Cc1ccc(C)c(Cn2c(CCNC(=O)CCC(C)O)nc3ccccc32)c1 (configuration not stated)	-	no hit	no hit
COc1ccccc1N1CCN([C@H]2CN(C(=O)CCC(C)C)C[C@@H]2O)CC1	no hit	no hit	no hit
CCOC(=O)N1CCCCC(NC2CCN(c3ccc(F)c(F)c3)CC2)C1 (configuration not stated)	no hit	no hit	no hit
Cc1ccc(OC2(C(=O)NC(C)c3cccnc3)CCNCC2)cc1 (configuration not stated)	no hit	no hit	no hit
Cc1cccc(-c2ncc(CNCCCN3CCOCC3)cn2)c1	no hit	no hit	no hit
COc1cc2c(cc1-c1cn(Cc3ccc(CO)cc3)nn1)CCC2	no hit	no hit	no hit
Cc1c(CCN)c2cccc3c2n1CCC3	no hit	no hit	no hit
O=C(O)c1cccnc1CN1CCC(C(O)Cc2ccccc2)CC1 (configuration not stated)	no hit	no hit	no hit
C=C[C@@H]1CN2CCC1C[C@H]2[C@H](O)c1ccnc2ccccc12 (some centres not stated)	no hit	no hit	no hit
CC1=C(C)C(=O)C(C(CCCCCC(=O)O)c2ccccc2)=C(C)C1=O (configuration not stated)	no hit	no hit	no hit
O=C(NCCn1ncc2ccccc2c1=O)c1ccc(C2CCCNC2)cc1 (configuration not stated)	no hit	no hit	no hit
CC(C)(O)CCc1cccc(C(=O)NC2(CO)CCOCC2)c1	no hit	no hit	no hit
CN(Cc1cccc(CCN)c1)Cc1nc(-c2cccnc2)no1	no hit	no hit	no hit
CCOC(=O)c1ccccc1NC(=O)CC1Nc2ccccc2NC1=O (configuration not stated)	no hit	no hit	no hit
Nc1nc(SCC(=O)NCCN2CCOCC2)nc2sc3c(c12)CCCC3	no hit	no hit	no hit
Cc1nn(C(=O)c2cccs2)c(N)c1-c1ccccc1	no hit	no hit	no hit
CCOC(=O)c1c(N)nn(C(=O)CC)c1-c1ccccc1	no hit	no hit	no hit
Nc1cc(Cl)ccc1N1CCN(c2ccc(Cl)cc2N)CC1	no hit	no hit	no hit
COc1ccc(-c2cnc(NCc3ccc(C)cc3)n2C)cc1	no hit	no hit	no hit
CCCCNc1nc2ccccc2c2nc(-c3ccccc3)nn12	-	no hit	no hit
CCc1ccc(NC(=O)N2CCCN(C(=O)c3nonc3N)CC2)cc1	-	no hit	no hit
N#Cc1cnc(NC(=O)c2ccc(CN3CC[C@H](O)C3)cc2)s1	no hit	no hit	no hit
Nc1nonc1-c1nc2ccccc2n1Cc1cccc(Cl)c1	no hit	no hit	no hit
CCC(O)Cn1nc(Cc2c(Cl)cccc2Cl)nc1CN(C)C (configuration not stated)	no hit	no hit	no hit
Nc1cc(-c2cccc(C3CCCN3)c2)c2cc[nH]c2n1 (configuration not stated)	hit	no hit	no hit
CN1C(=O)CC(NCc2ccc(S(N)(=O)=O)cc2)C1=O (configuration not stated)	no hit	no hit	no hit
O=S(=O)(NC1CCCCC1Nc1ccc(Br)cc1)c1ccc(Cl)cc1 (configuration not stated)	-	no hit	no hit
COc1ccc2c(C)cc(N3C[C@H](C4CC4)[C@@H](N)C3)nc2c1	no hit	hit	hit
N#Cc1sc(=S)n(-c2ccccc2)c1N	no hit	no hit	no hit
CC(=O)c1cccc(Nc2nc(-c3c(C)nc4ccccn34)cs2)c1	no hit	no hit	no hit
CSc1nc(NCCN2CCOCC2)c(C#N)c(-c2ccccc2)n1	-	no hit	no hit
Nc1ccccc1-c1nc2ccccc2s1	no hit	no hit	no hit
O=C(c1ccc2[nH]cnc2c1)N1CC[C@@H](c2ccc3c(c2)OCO3)[C@H](O)C1	no hit	no hit	no hit
COC(=O)c1sc2nc3c(cc2c1N)CN(C(C)C)CC3	no hit	no hit	no hit
C=Cc1ccc(N2CCN(Cc3ccccc3)CC(O)C2)nc1 (configuration not stated)	no hit	hit	no hit
CSCCCN1CCN(Cc2ccccc2)CC(O)C1 (configuration not stated)	no hit	no hit	no hit
CN(C)c1ccc(C2C(C#N)=C(N)OC3=C2C(=O)CC(C)(C)C3)cc1 (configuration not stated)	no hit	no hit	no hit
CCCCC(=O)N(CCC)CCC	no hit	no hit	no hit
CCc1nccn1CC(=O)N1C[C@H](CO)C[C@H](CN2CCOCC2)C1	no hit	no hit	no hit
Cc1cc(C)n(-c2nc(NC(C)(C)C)nc(N3CCOCC3)n2)n1	-	no hit	no hit
Cc1ccc(-c2noc(-c3cccnc3NCc3cccnc3)n2)cc1	-	no hit	no hit
Cn1c(Cn2ccnc2)nnc1C1CCCN(C(=O)[C@H]2CC[C@@H](O)CC2)C1 (some centres not stated)	no hit	no hit	no hit
Cc1ccc(NC(=O)Cn2nnc(C(=O)NCc3ccc(F)cc3)c2N)cc1	no hit	no hit	no hit

Some entries from above, unchanged:

Compound,T1,T2,T3
Nc1cc(-c2cccc(C3CCCN3)c2)c2cc[nH]c2n1 (configuration not stated),hit,no hit,no hit
Cc1ccc(Nc2c(-c3ccc(N4CCOCC4)cc3)nc3cnccn23)cc1,no hit,no hit,no hit
O=C(c1ccc2[nH]cnc2c1)N1CC[C@@H](c2ccc3c(c2)OCO3)[C@H](O)C1,no hit,no hit,no hit
CCOC(=O)c1ccccc1NC(=O)CC1Nc2ccccc2NC1=O (configuration not stated),no hit,no hit,no hit
Nc1ccc(C(=O)Nc2ccc(Oc3ccc(NC(=O)c4ccc(N)cc4)cc3)cc2)cc1,no hit,hit,no hit
CCOC(=O)c1c(N)nn(C(=O)CC)c1-c1ccccc1,no hit,no hit,no hit
Cc1c(CCN)c2cccc3c2n1CCC3,no hit,no hit,no hit